PubChem BioAssay AID1259254 | NCATS – 2017

Aim: 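Genome-wide screen for genes that prevent DNA re-replication in cancer cells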 (primary screen)
Cells: human HCT116 colorectal cancer cells
Reagents: single siRNA against human genes
Time to read-out: 3 days
Detection: 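Nuclei stained with Hoechst and imaged; cell-cycle phase assigned by DNA content; G2 share scaled per plate, non-targeting siRNA 0%, GMNN siRNA 100%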
Scale: G2 robust z-score and G2 cells, % of GMNN control: higher = more G2 cells, more excess DNA replication; raw share of cells in G2: higher = larger share of cells with G2 DNA content
Call rule: 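An siRNA counts as active if its G2 robust z-score lies at least 5 MADs above the screen median; here such calls match roughly 38% of GMNN control or more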
The deposit covers about 59,000 reagents; this is a part drawn at random. About 1,550 of all reagents (2.6%) count as active. 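G2 share is only a proxy for re-replication; each gene was hit by three separate siRNAs, and active genes were retested.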 Raw values are not corrected between plates. Unmarked entries are inactive. The numbers tell different reagents against one gene apart. Not stated in the record: the amount of reagent.

gene symbol	reagent no.	G2 robust z-score	G2 cells, % of GMNN control	raw share of cells in G2 (%)
TMEM168 (GeneID 64418)	1	-0.213	1.47	5.22
TMEM168 (GeneID 64418)	2	-0.594	-1.21	4.07
TMEM168 (GeneID 64418)	3	1.78	15.5	6.8
TEX38 (GeneID 374973)	1	-0.785	-2.56	3.16
TEX38 (GeneID 374973)	2	2.07	17.5	10
TEX38 (GeneID 374973)	3	0.137	3.93	4.98
FCAR (GeneID 2204)	1	0.118	3.8	6.62
FCAR (GeneID 2204)	2	-0.18	1.7	5.91
FCAR (GeneID 2204)	3	0.665	7.65	6.38
IGDCC4 (GeneID 57722)	1	1.79	15.5	10.5
IGDCC4 (GeneID 57722)	2	1.1	10.7	9.59
IGDCC4 (GeneID 57722)	3	1.71	15	7.78
SLC22A14 (GeneID 9389)	1	0.732	8.12	5.97
SLC22A14 (GeneID 9389)	2	-1.02	-4.2	3.04
SLC22A14 (GeneID 9389)	3	-0.648	-1.59	4.6
GPBP1 (GeneID 65056)	1	0.0451	3.28	6.01
GPBP1 (GeneID 65056)	2	0.347	5.41	7.03
GPBP1 (GeneID 65056)	3	0.0332	3.2	3.54
BMS1P12 (GeneID 644684)	1	1.73	15.1	7.55
BMS1P12 (GeneID 644684)	2	2.68	21.8	11.9
BMS1P12 (GeneID 644684)	3	-0.00997	2.9	4.31
TMEM45A (GeneID 55076)	1	-0.896	-3.33	3.24
TMEM45A (GeneID 55076)	2	0.644	7.5	7.25
TMEM45A (GeneID 55076)	3	-0.191	1.63	3.66
PTCHD1 (GeneID 139411)	1	0.319	5.21	6.14
PTCHD1 (GeneID 139411)	2	1.78	15.5	8.02
PTCHD1 (GeneID 139411)	3	-0.475	-0.375	2.44
IGSF1 (GeneID 3547)	1	1.14	11	7.83
IGSF1 (GeneID 3547)	2	-0.513	-0.643	4.55
IGSF1 (GeneID 3547)	3	0.908	9.36	6.5
OR52N4 (GeneID 390072)	1	-0.868	-3.14	2.7
OR52N4 (GeneID 390072)	2	-0.471	-0.349	3.25
OR52N4 (GeneID 390072)	3	-0.432	-0.0693	4.6
CARD11 (GeneID 84433)	1	0.0126	3.06	6.7
CARD11 (GeneID 84433)	2	-0.224	1.39	4.7
CARD11 (GeneID 84433)	3	-0.379	0.302	4.9
SMARCA2 (GeneID 6595)	1	-0.919	-3.5	4.5
SMARCA2 (GeneID 6595)	2	1.41	12.9	8.96
SMARCA2 (GeneID 6595)	3	-0.918	-3.49	2.8
TRIM43 (GeneID 129868)	1	-0.632	-1.48	4.33
TRIM43 (GeneID 129868)	2	3.68	28.8	15.4
TRIM43 (GeneID 129868)	3	1.8	15.6	12.9
C20orf96 (GeneID 140680)	1	-0.387	0.242	4.27
C20orf96 (GeneID 140680)	2	1.75	15.3	7.95
C20orf96 (GeneID 140680)	3	-0.633	-1.49	2.04
OLFM2 (GeneID 93145)	1	-0.976	-3.9	2.43
OLFM2 (GeneID 93145)	2	-0.522	-0.702	2.78
OLFM2 (GeneID 93145)	3	0.959	9.72	6
FCGR2A (GeneID 2212)	1	-1.5	-7.59	2.38
FCGR2A (GeneID 2212)	2	-0.617	-1.37	3.17
FCGR2A (GeneID 2212)	3	0.322	5.24	7.14
FBXO42 (GeneID 54455)	1	0.506	6.53	5.94
FBXO42 (GeneID 54455)	2	-0.816	-2.77	3.1
FBXO42 (GeneID 54455)	3	-0.891	-3.3	2.1
BCL7A (GeneID 605)	1	0.333	5.31	7.79
BCL7A (GeneID 605)	2	-0.111	2.19	4.89
BCL7A (GeneID 605)	3	-0.0472	2.64	4.55
AIMP2 (GeneID 7965)	1	-1.27	-5.97	2.48
AIMP2 (GeneID 7965)	2	-0.353	0.482	4.09
AIMP2 (GeneID 7965)	3	0.654	7.57	6.02
TMUB1 (GeneID 83590)	1	-0.215	1.45	2.85
TMUB1 (GeneID 83590)	2	0.993	9.96	7.42
TMUB1 (GeneID 83590)	3	1.92	16.5	8.34
FOXL2NB (GeneID 401089)	1	-0.514	-0.649	3.57
FOXL2NB (GeneID 401089)	2	0.0895	3.6	4.94
FOXL2NB (GeneID 401089)	3	-0.291	0.917	5.17
CAMTA2 (GeneID 23125)	1	0.561	6.91	5.83
CAMTA2 (GeneID 23125)	2	1.29	12.1	11.4
CAMTA2 (GeneID 23125)	3	5.28 (active)	40.1	20.1

Part of the list above, set out differently.
AIMP2 (GeneID 7965) #2
- G2 robust z-score: -0.353
- G2 cells, % of GMNN control: 0.482
- raw share of cells in G2 (%): 4.09

AIMP2 (GeneID 7965) #3
- G2 robust z-score: 0.654
- G2 cells, % of GMNN control: 7.57
- raw share of cells in G2 (%): 6.02

TMUB1 (GeneID 83590) #1
- G2 robust z-score: -0.215
- G2 cells, % of GMNN control: 1.45
- raw share of cells in G2 (%): 2.85

TMUB1 (GeneID 83590) #2
- G2 robust z-score: 0.993
- G2 cells, % of GMNN control: 9.96
- raw share of cells in G2 (%): 7.42
